Paper PMC10781740
No constants are given. Whether binding was seen depends on the method and setting. Binding seen in cells or lysates may run through a third protein. Some binding calls cover weakened binding; strength is not graded here.

Protein sequences, listed by entry. Tags and fused reporters are not part of them.
UniProt Q9Y6K9: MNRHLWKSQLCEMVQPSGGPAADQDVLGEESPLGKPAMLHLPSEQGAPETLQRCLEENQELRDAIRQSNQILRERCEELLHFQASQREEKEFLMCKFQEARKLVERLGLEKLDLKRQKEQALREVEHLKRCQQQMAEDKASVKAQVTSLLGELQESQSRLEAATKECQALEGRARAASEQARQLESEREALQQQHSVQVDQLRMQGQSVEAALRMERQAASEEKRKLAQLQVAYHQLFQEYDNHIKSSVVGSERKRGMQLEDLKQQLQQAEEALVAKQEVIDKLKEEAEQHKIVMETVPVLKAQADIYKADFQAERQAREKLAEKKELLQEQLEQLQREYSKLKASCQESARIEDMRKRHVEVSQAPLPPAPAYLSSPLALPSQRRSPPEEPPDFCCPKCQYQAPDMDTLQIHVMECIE
UniProt Q96EP0: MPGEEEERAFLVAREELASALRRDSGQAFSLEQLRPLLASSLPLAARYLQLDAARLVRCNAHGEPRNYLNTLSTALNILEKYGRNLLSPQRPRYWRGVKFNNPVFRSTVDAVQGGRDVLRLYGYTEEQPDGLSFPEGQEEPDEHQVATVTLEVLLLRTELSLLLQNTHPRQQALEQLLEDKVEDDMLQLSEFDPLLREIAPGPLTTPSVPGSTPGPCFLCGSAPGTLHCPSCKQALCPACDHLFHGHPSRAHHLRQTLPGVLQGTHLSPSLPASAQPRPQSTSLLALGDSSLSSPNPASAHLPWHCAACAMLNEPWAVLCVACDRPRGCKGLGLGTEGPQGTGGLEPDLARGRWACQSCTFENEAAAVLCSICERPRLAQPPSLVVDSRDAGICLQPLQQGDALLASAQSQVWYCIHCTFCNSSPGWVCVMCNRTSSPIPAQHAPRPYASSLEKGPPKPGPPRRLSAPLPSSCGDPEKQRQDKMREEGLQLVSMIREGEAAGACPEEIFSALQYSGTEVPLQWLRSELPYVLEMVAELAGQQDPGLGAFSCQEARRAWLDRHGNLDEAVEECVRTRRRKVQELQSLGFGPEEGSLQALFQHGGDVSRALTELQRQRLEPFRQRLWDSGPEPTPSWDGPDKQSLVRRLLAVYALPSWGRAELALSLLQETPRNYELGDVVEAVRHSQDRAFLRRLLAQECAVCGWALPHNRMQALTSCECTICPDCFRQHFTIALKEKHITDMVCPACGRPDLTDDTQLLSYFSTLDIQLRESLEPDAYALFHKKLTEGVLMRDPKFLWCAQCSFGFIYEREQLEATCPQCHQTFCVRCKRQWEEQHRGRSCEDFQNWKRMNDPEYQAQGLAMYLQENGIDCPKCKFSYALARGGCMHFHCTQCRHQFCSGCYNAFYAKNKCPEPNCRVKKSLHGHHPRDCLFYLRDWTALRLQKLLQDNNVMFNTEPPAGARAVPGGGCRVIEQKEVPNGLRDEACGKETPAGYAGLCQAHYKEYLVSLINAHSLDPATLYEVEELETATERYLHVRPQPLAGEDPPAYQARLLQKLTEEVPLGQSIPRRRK

Molecular target: tandem-affinity purification (TAP)-tagged NEMO (UniProt Q9Y6K9)
Test: co-IP; Flag-M2 beads on lysates of A549 TAP-NEMO, TAP-HOIP-WT or TAP-HOIP-C885S rescue cells; cells primed with 100 U/mL IFNα for 24 h, mock or infected with SeV 1:300 (3 h p.i. for TAP-NEMO; indicated times for TAP-HOIP); 100 mM NaCl, 40 mM Tris-HCl pH 7.5, 1 mM CaCl2, 1 mM MgCl2, with 1% Triton X-100 and 0.1% SDS for the sonicated pellet; 16 h at 4 °C; Western blot

binding: binds
Substance: HOIL-1-interacting protein (HOIP) (from UniProt Q96EP0 1-1072) (enzyme)
